Some of these results come from one statement about several compounds together.
Target: T1, human calcium-sensing receptor (CaSR) (Homo sapiens, UniProt P41180)
T1 construct: expressed in transfected cells
T1 sequence (P41180 20-1078): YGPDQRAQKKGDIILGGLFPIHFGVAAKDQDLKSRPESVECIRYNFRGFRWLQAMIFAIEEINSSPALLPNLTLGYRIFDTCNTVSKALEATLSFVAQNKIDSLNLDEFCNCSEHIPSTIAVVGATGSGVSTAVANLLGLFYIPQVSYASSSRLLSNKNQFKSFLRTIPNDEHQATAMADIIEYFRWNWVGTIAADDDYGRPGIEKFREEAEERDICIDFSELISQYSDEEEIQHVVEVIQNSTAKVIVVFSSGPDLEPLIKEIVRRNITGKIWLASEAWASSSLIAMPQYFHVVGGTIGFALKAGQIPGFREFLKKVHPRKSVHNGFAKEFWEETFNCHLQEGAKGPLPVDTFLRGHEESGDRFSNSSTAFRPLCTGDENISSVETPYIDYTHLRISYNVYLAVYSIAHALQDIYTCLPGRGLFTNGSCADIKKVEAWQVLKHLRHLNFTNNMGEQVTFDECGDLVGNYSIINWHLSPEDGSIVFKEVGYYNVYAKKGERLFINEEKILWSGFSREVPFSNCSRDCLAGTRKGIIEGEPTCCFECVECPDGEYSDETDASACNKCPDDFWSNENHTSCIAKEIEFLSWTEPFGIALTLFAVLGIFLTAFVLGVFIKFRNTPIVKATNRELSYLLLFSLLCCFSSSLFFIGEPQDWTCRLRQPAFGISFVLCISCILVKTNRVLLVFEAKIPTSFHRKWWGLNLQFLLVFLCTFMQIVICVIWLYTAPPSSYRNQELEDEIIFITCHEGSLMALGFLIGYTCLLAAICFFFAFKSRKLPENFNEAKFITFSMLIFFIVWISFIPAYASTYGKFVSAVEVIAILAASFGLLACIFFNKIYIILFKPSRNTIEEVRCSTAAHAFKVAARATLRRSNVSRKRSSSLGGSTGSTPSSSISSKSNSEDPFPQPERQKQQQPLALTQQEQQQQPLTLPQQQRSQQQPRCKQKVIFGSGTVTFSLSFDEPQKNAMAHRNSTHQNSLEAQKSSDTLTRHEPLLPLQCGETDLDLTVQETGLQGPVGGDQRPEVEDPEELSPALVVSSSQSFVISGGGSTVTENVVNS
Experiment: intracellular Ca assay, CaSR antagonist activity in HEK293/hCaSR cells
Format: cell-based
Conditions: Fura2-AM, inhibition of response to calcium chloride ligand solution
Procedure, shortened: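 HEK293/hCaSR cells were loaded with Fura2-AM and pre-incubated with compound for 160 s at 37° C in HEPES buffer (pH 7.4, 0.8 mM CaCl2), then challenged with calcium ligand solution. Read-out was the peak 340/380 nm fluorescence ratio; inhibition is relative to no-compound (0%) and no-calcium-ligand (100%) controls.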

Compound	IC50 values according to the intracellular Ca assay (CaSR antagonist activity)
CCN(C[C@H](O)CNC(C)(C)CC1Cc2ccccc2C1)S(=O)(=O)c1cccc(-c2ccc(CC(=O)O)cc2)c1 [Exp. 3-199, (R)-2-(3′-(N-(3-(1-(2,3-dihydro-1H-inden-2-yl)-2-methylpropan-2-ylamino)-2-hydroxypropyl)-N-ethylsulfamoyl)biphenyl-4-yl)acetic acid]	3.0 to 1.0 μM
COc1ccc(-c2cc(C(=O)O)ccc2F)cc1S(=O)(=O)N(C)C[C@H](O)CNC(C)(C)CC1Cc2ccccc2C1 [Exp. 3-200, (R)-3′-(N-(3-(1-(2,3-dihydro-1H-inden-2-yl)-2-methylpropan-2-ylamino)-2-hydroxypropyl)-N-methylsulfamoyl)-6-fluoro-4′-methoxybiphenyl-3-carboxylic acid]	3.0 to 1.0 μM
CN(C[C@H](O)CNC(C)(C)CC1Cc2ccccc2C1)S(=O)(=O)c1cccc(-c2ccc(Cl)c(C(=O)O)c2)c1 [Exp. 3-202, (R)-4-chloro-3′-(N-(3-(1-(2,3-dihydro-1H-inden-2-yl)-2-methylpropan-2-ylamino) 2-hydroxypropyl)-N-methylsulfamoyl)biphenyl-3-carboxylic acid]	1.0 to 0.3 μM
CN(C[C@H](O)CNC(C)(C)CC1Cc2ccccc2C1)S(=O)(=O)c1cncc(-c2ccc(C(=O)O)c(Cl)c2)c1 [Exp. 3-207, (R)-2-chloro-4-(5-(N-(3-(1-(2,3-dihydro-1H-inden-2-yl)-2-methylpropan-2-ylamino)-2-hydroxypropyl)-N-methylsulfamoyl)pyridin-3-yl)benzoic acid]	1.0 to 0.3 μM
CN(C[C@H](O)CNC(C)(C)CC1Cc2ccccc2C1)S(=O)(=O)c1ccc(-c2ccc(C(=O)O)c(Cl)c2)cc1 [Exp. 3-208, (R)-3-chloro-4′-(N-(3-(1-(2,3-dihydro-1H-inden-2-yl)-2-methylpropan-2-ylamino)-2-hydroxypropyl)-N-methylsulfamoyl)biphenyl-4-carboxylic acid]	3.0 to 1.0 μM
CN(C[C@H](O)CNC(C)(C)CC1Cc2ccccc2C1)S(=O)(=O)c1ccc(-c2ccc(C(=O)O)c(Cl)c2)s1 [Exp. 3-209, (R)-2-chloro-4-(5-(N-(3-(1-(2,3-dihydro-1H-inden-2-yl)-2-methylpropan-2-ylamino)-2-hydroxypropyl)-N-methylsulfamoyl)thiophen-2-yl)benzoic acid]	1.0 to 0.3 μM
CN(C[C@H](O)CNC(C)(C)Cc1ccc(Cl)c(F)c1)S(=O)(=O)c1cc(-c2ccc(C(=O)O)c(Cl)c2)cc(C(F)(F)F)c1 [Exp. 3-210, (R)-3-chloro-3′-(N-(3-(1-(4-chloro-3-fluorophenyl)-2-methylpropan-2-ylamino)-2-hydroxypropyl)-N-methylsulfamoyl)-5′-(trifluoromethyl)biphenyl-4-carboxylic acid]	1.0 to 0.3 μM
Cc1cc(S(=O)(=O)N(C)C[C@H](O)CNC(C)(C)CC2Cc3ccccc3C2)ccc1-c1ccc(C(=O)O)c(Cl)c1 [Exp. 3-211, (R)-3-chloro-4′-(N-(3-(1-(2,3-dihydro-1H-inden-2-yl)-2-methylpropan-2-ylamino)-2-hydroxypropyl)-N-methylsulfamoyl)-2′-methylbiphenyl-4-carboxylic acid]	3.0 to 1.0 μM
CN(C[C@H](O)CNC(C)(C)CC1Cc2ccccc2C1)S(=O)(=O)c1c(Cl)cc(-c2ccc(C(=O)O)c(Cl)c2)cc1Cl [Exp. 3-212, (R)-3,3′,5′-trichloro-4′-(N-(3-(1-(2,3-dihydro-1H-inden-2-yl)-2-methylpropan-2-ylamino)-2-hydroxypropyl)-N-methylsulfamoyl)biphenyl-4-carboxylic acid]	1.0 to 0.3 μM
CN(C[C@H](O)CNC(C)(C)CC1Cc2ccccc2C1)S(=O)(=O)c1cccc(-c2ccc(CC(=O)O)c([N+](=O)[O-])c2)c1 [Exp. 3-218, (R)-2-(3′-(N-(3-(1-(2,3-dihydro-1H-inden-2-yl)-2-methylpropan-2-ylamino)-2-hydroxypropyl)-N-methylsulfamoyl)-3-nitrobiphenyl-4-yl)acetic acid]	3.0 to 1.0 μM
CN(C[C@H](O)CNC(C)(C)CC1Cc2ccccc2C1)S(=O)(=O)c1cccc(-c2cccc(NCC(=O)O)c2)c1 [Exp. 3-221, (R)-2-(3′-(N-(3-(1-(2,3-dihydro-1H-inden-2-yl)-2-methylpropan-2-ylamino)-2-hydroxypropyl)-N-methylsulfamoyl)biphenyl-3-ylamino)acetic acid]	3.0 to 1.0 μM
CN(C[C@H](O)CNC(C)(C)CC1Cc2ccccc2C1)S(=O)(=O)c1cccc(-c2cncc(C(=O)O)c2)c1 [Exp. 3-222, (R)-5-(3-(N-(3-(1-(2,3-dihydro-1H-inden-2-yl)-2-methylpropan-2-ylamino)-2-hydroxypropyl)-N-methylsulfamoyl)phenyl)nicotinic acid]	1.0 to 0.3 μM
CN(C[C@H](O)CNC(C)(C)CC1Cc2ccccc2C1)S(=O)(=O)c1cccc(-c2ccc(NCC(=O)O)c(Cl)c2)c1 [Exp. 3-224, (R)-2-(3-chloro-3′-(N-(3-(1-(2,3-dihydro-1H-inden-2-yl)-2-methylpropan-2-ylamino)-2-hydroxypropyl)-N-methylsulfamoyl)biphenyl-4-ylamino)acetic acid]	1.0 to 0.3 μM
CN(C[C@H](O)CNC(C)(C)CC1Cc2ccccc2C1)S(=O)(=O)c1cccc(-c2ccc(C(=O)O)cc2Cl)c1 [Exp. 3-226, (R)-2-chloro-3′-(N-(3-(1-(2,3-dihydro-1H-inden-2-yl)-2-methylpropan-2-ylamino)-2-hydroxypropyl)-N-methylsulfamoyl)biphenyl-4-carboxylic acid]	1.0 to 0.3 μM
COc1cc(-c2cccc(S(=O)(=O)N(C)C[C@H](O)CNC(C)(C)CC3Cc4ccccc4C3)c2)ccc1C(=O)O [Exp. 3-227, (R)-3′-(N-(3-(1-(2,3-dihydro-1H-inden-2-yl)-2-methylpropan-2-ylamino)-2-hydroxypropyl)-N-methylsulfamoyl)-3-methoxybiphenyl-4-carboxylic acid]	1.0 to 0.3 μM
CN(C[C@H](O)CNC(C)(C)CC1Cc2ccccc2C1)S(=O)(=O)c1ccc(-c2cncc(C(=O)O)c2)c(C(F)(F)F)c1 [Exp. 3-229, (R)-5-(4-(N-(3-(1-(2,3-dihydro-1H-inden-2-yl)-2-methylpropan-2-ylamino)-2-hydroxypropyl)-N-methylsulfamoyl)-2-(trifluoromethyl)phenyl)nicotinic acid]	1.0 to 0.3 μM
CN(C[C@H](O)CNC(C)(C)CC1Cc2ccccc2C1)S(=O)(=O)c1ccc(-c2cncc(C(=O)O)c2)c(Cl)c1 [Exp. 3-230, (R)-5-(2-chloro-4-(N-(3-(1-(2,3-dihydro-1H-inden-2-yl)-2-methylpropan-2-ylamino)-2-hydroxypropyl)-N-methylsulfamoyl)phenyl)nicotinic acid]	1.0 to 0.3 μM
Cc1cc(S(=O)(=O)N(C)C[C@H](O)CNC(C)(C)CC2Cc3ccccc3C2)ccc1-c1ccc(CCC(=O)O)cc1Cl [Exp. 5-17, (R)-3-(2-chloro-4′-(N-(3-(1-(2,3-dihydro-1H-inden-2-yl)-2-methylpropan-2-ylamino)-2-hydroxypropyl)-N-methylsulfamoyl)-2′-methylbiphenyl-4-yl)propionic acid]	3.0 to 1.0 μM
CN(C[C@H](O)CNC(C)(C)CC1Cc2ccccc2C1)S(=O)(=O)c1cc(-c2cc(CCC(=O)O)ccc2F)cc(C(F)(F)F)c1 [Exp. 5-19, (R)-3-(3′-(N-(3-(1-(2,3-dihydro-1H-inden-2-yl)-2-methylpropan-2-ylamino)-2-hydroxypropyl)-N-methylsulfamoyl)-6-fluoro-5′-(trifluoromethyl)biphenyl-3-yl)propionic acid]	1.0 to 0.3 μM

Reference: patent US8039514B2, “Sulfonamide compounds and use thereof” (Asahi Kasei Pharma Corporation, priority 2008, dated 2011)
